Laboratory results published in article PMC7819943, “Rice protein-binding microarrays: a tool to detect cis-acting elements near promoter regions in rice”.
The list shows a part of the results.

Biological target: T1, OsSMF1 (Oryza sativa, UniProt Q6ZLB0 1-436)
T1 sequence: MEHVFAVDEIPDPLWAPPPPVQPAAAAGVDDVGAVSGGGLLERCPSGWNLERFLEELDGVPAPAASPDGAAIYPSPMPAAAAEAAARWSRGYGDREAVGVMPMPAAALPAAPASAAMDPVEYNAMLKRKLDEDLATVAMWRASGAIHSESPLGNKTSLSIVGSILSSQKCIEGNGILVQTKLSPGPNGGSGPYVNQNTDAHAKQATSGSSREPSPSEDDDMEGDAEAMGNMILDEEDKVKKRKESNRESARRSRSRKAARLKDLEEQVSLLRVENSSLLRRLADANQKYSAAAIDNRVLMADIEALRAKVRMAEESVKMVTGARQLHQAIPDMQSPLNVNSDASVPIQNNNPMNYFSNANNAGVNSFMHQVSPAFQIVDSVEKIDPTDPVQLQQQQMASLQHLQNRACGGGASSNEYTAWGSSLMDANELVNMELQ
Assay: protein-binding microarray (RPBM); PBS, 2% BSA, 51.3 ng/ul salmon testes DNA, 50 uM zinc acetate, 200 nM TF, 25 C, 1 h; high values mean tight binding
Settings: protein: recombinant; tags: N-terminal polyhistidine and DsRed monomer fusion (pET32a); chain copies: 2; label: CyDye5-dUTP incorporated in the synthesized complementary strand; 3' TTTTT single-stranded linker to array surface; dsDNA, one strand shown
Procedure, shortened: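 Binding signal here means per-feature fluorescence intensity in arbitrary units. The values were read on an Axon 4000B scanner after a custom Agilent array, double-stranded by primer extension with Cy5-dUTP, was incubated with 200 nM protein at 25 °C for 1 h in PBS with 2% BSA, salmon testes DNA and 50 µM zinc acetate, then washed. The proteins were transcription factors with an N-terminal polyhistidine tag and DsRed, expressed in E. coli BL21-CodonPlus and purified on Ni–NTA.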

| Sequence | binding signal |
| --- | --- |
| CCCAGTGCCCCGGCGGCCAGATCTCCTCATGCCACTCGTGCGGAGTCACCTAGTGCAG | 3350 fluorescence intensity (a.u.) |
| CCACTGACAAGTGGGCCCCACCATGACGTTATCTCCTTCACGGAGTCACCTAGTGCAG | 4910 fluorescence intensity (a.u.) |
| TATAAGCACAATGCAGCCTAGTTGTTGCCGTGACCTGAGTCGGAGTCACCTAGTGCAG | 3180 fluorescence intensity (a.u.) |
| ACCACCATCATCTCCAGTCGCCTAGTCACCTTTCTTGTAGCGGAGTCACCTAGTGCAG | 7480 fluorescence intensity (a.u.) |
| TGCCAGGTGCGTGCGTGCGTGCGTCTCCTCCCCTTCCCTCCGGAGTCACCTAGTGCAG | 10200 fluorescence intensity (a.u.) |
| GTCACCGAAGGCGATTAAGGGACAAGCTATAGCTGATTTTCGGAGTCACCTAGTGCAG | 46100 fluorescence intensity (a.u.) |
| AGTCCCACCACATGACTCAACAACACATTCTCTGTCTCTCCGGAGTCACCTAGTGCAG | 7820 fluorescence intensity (a.u.) |
| GCCGTGAGCCCACAGCGGGTGAGGCGGACACGTCGCCCACCGGAGTCACCTAGTGCAG | 3990 fluorescence intensity (a.u.) |
| AAATTAACAATCAGATATAGGGGCAATACAGTAATTCACGCGGAGTCACCTAGTGCAG | 3170 fluorescence intensity (a.u.) |
| ACACAGAGGCCGTGTTTAGTTCTCTCAAATTCTCAACTTTCGGAGTCACCTAGTGCAG | 25400 fluorescence intensity (a.u.) |
| TTATTAATTATTTTATTTGTGACTTACTTTATTGTCTACACGGAGTCACCTAGTGCAG | 3500 fluorescence intensity (a.u.) |
| CGGATTGGACGCCCCGACGGTCTTCCCCGGCAGCGAGGATCGGAGTCACCTAGTGCAG | 3580 fluorescence intensity (a.u.) |
| CGTCCATGACACGTGGGGCCCGGCAGTGCCGAATCGCCCTCGGAGTCACCTAGTGCAG | 12100 fluorescence intensity (a.u.) |
| GCTTGCGTCGTAAGCCGGCTTACGTCGTAAGCTGGCTTCTCGGAGTCACCTAGTGCAG | 3190 fluorescence intensity (a.u.) |
| TGTAATTATAGTACAATCGTAGTGTAATTACACTGTAACTCGGAGTCACCTAGTGCAG | 3480 fluorescence intensity (a.u.) |
| AGAATAATTATATTGGGATGGGATAAAGTATGAATTTTCTCGGAGTCACCTAGTGCAG | 3240 fluorescence intensity (a.u.) |
| CCGTATACATAGCTAGCTGTCTGTGATGCATGCATGGTCACGGAGTCACCTAGTGCAG | 44200 fluorescence intensity (a.u.) |
| GCCGTCTCGCCTCCTATTCTGTCGCGACGCCACCACTGCTCGGAGTCACCTAGTGCAG | 3440 fluorescence intensity (a.u.) |
| TAATCTAGTTGGGCCGCCTAGTCAGACGCATGAACGGCCACGGAGTCACCTAGTGCAG | 36000 fluorescence intensity (a.u.) |
| ACCCGCACGTCTTCCGCGGCCACGCCACCGTCGATCCCCGCGGAGTCACCTAGTGCAG | 3690 fluorescence intensity (a.u.) |
| GCGCCACGGCTACACGACTCCGCGCGGGTGCGAGCGGCGGCGGAGTCACCTAGTGCAG | 3620 fluorescence intensity (a.u.) |
| GTTAGGGGATGAGCGGAGGAAATCGTCATCGGTGGCAGTGCGGAGTCACCTAGTGCAG | 5200 fluorescence intensity (a.u.) |
| GAATGTTAAACACACGTTACTCTACCACCTGGTGCAATGGCGGAGTCACCTAGTGCAG | 3150 fluorescence intensity (a.u.) |

Copied from the list:
Value for TGCCAGGTGCGTGCGTGCGTGCGTCTCCTCCCCTTCCCTCCGGAGTCACCTAGTGCAG under binding signal: 10200 fluorescence intensity (a.u.)
Value for GCTTGCGTCGTAAGCCGGCTTACGTCGTAAGCTGGCTTCTCGGAGTCACCTAGTGCAG under binding signal: 3190 fluorescence intensity (a.u.)
